In patent US20040002593A1 (BURNHAM INSTITUTE, published 2004):
No constants are given. Whether binding was seen depends on the method and setting. In cells and extracts the contact can be indirect. Some binding calls cover weakened binding; strength is not graded here. For some of these results: Tags and fused reporters may be left off the sequences shown.

By UniProt entry, the sequences of proteins in these tests, tags left out.
UniProt O43353: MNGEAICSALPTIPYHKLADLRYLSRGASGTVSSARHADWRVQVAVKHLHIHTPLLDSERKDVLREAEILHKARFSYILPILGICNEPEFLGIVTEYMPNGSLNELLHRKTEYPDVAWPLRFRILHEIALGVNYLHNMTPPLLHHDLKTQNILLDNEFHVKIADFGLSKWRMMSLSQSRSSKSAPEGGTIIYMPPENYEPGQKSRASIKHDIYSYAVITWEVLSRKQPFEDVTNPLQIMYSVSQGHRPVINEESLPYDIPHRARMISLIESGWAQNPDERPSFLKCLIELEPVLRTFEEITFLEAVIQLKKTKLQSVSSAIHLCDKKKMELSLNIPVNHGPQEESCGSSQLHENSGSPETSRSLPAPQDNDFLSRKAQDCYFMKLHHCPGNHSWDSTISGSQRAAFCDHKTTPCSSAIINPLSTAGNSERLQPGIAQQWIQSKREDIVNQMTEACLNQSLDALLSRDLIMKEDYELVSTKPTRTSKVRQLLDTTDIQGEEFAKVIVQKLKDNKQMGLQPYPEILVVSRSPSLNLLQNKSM
UniProt P29466: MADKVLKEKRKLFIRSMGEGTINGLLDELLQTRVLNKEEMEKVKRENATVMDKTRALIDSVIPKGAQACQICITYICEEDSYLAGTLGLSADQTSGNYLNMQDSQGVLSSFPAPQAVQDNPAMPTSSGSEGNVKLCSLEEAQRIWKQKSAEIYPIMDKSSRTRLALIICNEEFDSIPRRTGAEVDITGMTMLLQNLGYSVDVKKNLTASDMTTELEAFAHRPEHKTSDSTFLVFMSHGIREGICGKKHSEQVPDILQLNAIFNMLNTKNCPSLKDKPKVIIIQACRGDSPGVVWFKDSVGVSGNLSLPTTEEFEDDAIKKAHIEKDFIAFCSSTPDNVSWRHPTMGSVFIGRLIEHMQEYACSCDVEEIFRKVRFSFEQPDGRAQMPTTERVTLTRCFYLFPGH
UniProt Q9ULZ3: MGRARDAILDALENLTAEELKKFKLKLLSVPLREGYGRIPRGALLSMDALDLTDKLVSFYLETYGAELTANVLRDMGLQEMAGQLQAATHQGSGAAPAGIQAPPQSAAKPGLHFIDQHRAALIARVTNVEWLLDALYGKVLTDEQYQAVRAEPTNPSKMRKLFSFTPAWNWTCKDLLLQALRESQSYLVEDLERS

What was measured:
Assay in all cases: co-immunoprecipitation from transfected HEK293T cells
[1] = target: T1, Flag-Nod1 (UniProt Q9Y239)
T1 sequence (looked up): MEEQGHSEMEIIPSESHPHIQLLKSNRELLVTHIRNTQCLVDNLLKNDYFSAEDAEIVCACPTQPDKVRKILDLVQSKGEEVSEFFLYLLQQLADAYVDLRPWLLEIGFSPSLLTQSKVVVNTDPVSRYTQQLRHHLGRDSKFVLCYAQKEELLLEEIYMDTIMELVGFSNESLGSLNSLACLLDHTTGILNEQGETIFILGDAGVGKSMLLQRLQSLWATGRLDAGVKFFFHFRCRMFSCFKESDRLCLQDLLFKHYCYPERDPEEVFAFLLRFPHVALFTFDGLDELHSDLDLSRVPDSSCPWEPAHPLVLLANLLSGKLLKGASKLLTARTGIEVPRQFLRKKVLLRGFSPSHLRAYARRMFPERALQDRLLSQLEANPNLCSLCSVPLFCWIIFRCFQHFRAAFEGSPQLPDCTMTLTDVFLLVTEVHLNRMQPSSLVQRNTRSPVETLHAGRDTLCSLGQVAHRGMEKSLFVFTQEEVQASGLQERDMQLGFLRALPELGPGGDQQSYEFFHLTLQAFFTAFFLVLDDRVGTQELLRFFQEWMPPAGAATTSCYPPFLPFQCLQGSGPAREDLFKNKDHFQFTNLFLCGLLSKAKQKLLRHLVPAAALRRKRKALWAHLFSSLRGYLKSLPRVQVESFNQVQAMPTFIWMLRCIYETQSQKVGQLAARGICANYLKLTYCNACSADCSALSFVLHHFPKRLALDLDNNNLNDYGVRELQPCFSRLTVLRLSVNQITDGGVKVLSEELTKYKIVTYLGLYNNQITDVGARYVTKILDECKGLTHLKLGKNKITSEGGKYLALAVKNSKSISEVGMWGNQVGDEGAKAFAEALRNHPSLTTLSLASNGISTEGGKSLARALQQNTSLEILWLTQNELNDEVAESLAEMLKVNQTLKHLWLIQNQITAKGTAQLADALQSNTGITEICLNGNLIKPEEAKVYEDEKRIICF

[2] = target: Flag-Cardiak (UniProt O43353)
[3] = target: Myc-Caspase-1 (UniProt P29466)
[4] = target: T2, Myc-Card10 (UniProt Q9BWT7)
T2 sequence (looked up): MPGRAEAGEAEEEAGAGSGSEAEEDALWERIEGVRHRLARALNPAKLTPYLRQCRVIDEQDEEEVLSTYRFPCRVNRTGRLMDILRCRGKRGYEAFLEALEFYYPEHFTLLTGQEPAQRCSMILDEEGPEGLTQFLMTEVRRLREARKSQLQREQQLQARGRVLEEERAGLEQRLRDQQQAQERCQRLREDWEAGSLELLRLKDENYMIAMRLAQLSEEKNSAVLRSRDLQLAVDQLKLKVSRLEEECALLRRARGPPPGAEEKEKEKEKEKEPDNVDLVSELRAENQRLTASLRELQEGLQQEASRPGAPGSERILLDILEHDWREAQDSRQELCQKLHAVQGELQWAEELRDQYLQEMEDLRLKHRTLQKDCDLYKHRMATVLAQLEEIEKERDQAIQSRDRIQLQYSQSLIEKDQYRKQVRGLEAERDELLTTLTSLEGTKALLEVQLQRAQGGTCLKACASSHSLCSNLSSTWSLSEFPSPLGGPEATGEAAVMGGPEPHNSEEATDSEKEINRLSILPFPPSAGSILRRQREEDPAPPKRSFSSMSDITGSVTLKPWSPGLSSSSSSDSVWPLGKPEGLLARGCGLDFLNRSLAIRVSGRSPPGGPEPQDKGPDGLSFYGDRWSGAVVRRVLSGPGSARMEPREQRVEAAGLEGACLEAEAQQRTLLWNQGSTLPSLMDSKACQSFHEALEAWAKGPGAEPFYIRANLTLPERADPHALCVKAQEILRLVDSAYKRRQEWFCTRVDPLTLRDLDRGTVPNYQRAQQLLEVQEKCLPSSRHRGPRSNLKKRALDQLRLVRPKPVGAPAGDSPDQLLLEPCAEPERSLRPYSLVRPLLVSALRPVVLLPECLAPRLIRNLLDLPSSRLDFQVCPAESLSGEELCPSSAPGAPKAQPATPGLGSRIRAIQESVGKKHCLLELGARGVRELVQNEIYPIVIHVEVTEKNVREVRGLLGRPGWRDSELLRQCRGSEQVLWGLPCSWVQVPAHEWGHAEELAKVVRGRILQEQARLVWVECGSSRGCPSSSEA

Measured: binding

HA-ASC (from UniProt Q9ULZ3 1-195)
binds: [1] | [2] | [3] | [4]
